Data from publication PMC7069986.

Protein sequences, listed by entry. Tags and fused reporters are not part of them. Lines headed by an entry give the natural chain unless they say otherwise; changes in a name come on top.
UniProt Q9SA26: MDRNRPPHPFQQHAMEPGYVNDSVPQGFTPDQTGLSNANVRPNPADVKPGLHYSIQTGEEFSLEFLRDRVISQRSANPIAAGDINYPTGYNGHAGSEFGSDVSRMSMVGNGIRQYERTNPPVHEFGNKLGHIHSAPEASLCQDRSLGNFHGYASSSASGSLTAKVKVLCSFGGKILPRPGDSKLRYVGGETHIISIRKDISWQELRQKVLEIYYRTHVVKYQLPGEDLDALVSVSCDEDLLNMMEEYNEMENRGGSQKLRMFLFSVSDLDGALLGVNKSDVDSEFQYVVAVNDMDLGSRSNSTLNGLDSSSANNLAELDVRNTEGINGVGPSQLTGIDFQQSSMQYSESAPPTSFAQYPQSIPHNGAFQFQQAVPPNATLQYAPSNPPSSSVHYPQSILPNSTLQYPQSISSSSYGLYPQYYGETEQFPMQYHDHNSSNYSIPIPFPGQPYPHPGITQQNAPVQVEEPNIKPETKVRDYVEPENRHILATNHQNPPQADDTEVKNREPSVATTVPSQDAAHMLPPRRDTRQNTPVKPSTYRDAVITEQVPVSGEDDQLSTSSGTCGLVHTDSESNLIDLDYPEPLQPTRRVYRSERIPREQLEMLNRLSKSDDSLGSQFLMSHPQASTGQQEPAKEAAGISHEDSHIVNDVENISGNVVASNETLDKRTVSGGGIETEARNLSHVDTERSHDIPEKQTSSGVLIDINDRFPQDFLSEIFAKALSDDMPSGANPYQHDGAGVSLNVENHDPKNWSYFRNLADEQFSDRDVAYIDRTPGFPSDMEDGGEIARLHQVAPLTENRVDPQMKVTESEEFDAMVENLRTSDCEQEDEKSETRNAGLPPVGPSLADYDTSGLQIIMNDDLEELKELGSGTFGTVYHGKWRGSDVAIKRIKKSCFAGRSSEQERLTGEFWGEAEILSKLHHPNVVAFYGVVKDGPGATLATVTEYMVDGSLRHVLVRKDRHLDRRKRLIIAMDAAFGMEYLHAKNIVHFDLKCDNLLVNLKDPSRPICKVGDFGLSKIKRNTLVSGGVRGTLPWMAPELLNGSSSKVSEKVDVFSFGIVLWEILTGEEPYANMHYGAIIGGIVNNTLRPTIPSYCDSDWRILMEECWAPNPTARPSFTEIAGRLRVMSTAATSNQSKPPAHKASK

T1: Green fluorescent protein (GFP)-tagged SRK2A (Arabidopsis thaliana) (UniProt P43291)
T1 sequence: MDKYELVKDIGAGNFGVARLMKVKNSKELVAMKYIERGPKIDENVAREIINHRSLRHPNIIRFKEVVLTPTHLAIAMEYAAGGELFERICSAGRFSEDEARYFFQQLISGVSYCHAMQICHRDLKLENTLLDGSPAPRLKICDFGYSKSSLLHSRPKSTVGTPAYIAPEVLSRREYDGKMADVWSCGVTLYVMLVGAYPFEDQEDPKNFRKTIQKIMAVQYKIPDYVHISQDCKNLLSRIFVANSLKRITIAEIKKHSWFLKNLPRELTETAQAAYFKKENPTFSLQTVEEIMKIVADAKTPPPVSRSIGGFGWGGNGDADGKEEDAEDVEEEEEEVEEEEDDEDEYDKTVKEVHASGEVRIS

T2: Green fluorescent protein (GFP)-tagged SRK2G (Arabidopsis thaliana) (UniProt P43292)
T2 sequence: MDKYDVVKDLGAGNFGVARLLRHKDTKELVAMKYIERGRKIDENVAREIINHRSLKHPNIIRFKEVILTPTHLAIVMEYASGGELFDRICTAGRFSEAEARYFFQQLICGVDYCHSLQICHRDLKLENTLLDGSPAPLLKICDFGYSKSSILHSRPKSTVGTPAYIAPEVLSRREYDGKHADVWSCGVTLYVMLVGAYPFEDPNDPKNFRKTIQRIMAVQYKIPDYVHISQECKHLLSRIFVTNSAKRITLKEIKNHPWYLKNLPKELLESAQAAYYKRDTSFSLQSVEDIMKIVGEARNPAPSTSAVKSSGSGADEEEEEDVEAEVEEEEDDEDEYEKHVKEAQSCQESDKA


What was measured:
[1] = target: T1, Green fluorescent protein (GFP)-tagged SRK2A (Arabidopsis thaliana); test: affinity purification with mass spectrometry; SRK2A-GFP or SRK2G-GFP immunoprecipitated with anti-GFP MicroBeads from extracts of transgenic Arabidopsis plants treated with 800 mM mannitol for 10 min; LC-MS/MS; proteins detected in GFP-expressing plants excluded; two biological replicates
[2] = target: T2, Green fluorescent protein (GFP)-tagged SRK2G (Arabidopsis thaliana); test: as above

binding [1]	binding [2]	Molecule
binds	binds	RAF18 (B4 Raf-like MAPKKK), endogenous (from UniProt Q9SA26)
binds	binds	RAF20 (B4 Raf-like MAPKKK), endogenous (protein, UniProt Q9SAJ2 1-1248) MDKARHQQLFQHSMEPGYRNETVPQPFMPDQTGSASANMRPPNSNGSDVKAVHNFSIQTGEEFSLEFMRDRVIPQRSSNPNGAGDMNYNTGYMELRGLIGISHTGSECASDVSRFSTVENGTSDIERTNSSLHEFGNKLNHVQSAPQALLSKDSSVGNLHGYKNTSSSASGSVTAKVKILCSFGGKILPRPGDSKLRYVGGETHIISIRKDISWQELRQKILEIYYQTRVVKYQLPGEDLDALVSVSSEEDLQNMLEEYNEMENRGGSQKLRMFLFSISDMDDALLGVNKNDGDSEFQYVVAVNGMDIGSGKNSTLLGLDSSSANNLAELDVRNTEGINTIAGDVVGVGASQLMVNGFQQTSAQQSESIPPSSSLHYSQSIPLNAAYQLQQSVPPSSALHYPQSITPGSSLQYPQSITPGSSYQYPQSIIPGSASSYGIYPQYYGHVVQHGERERFPLYPDHSSNYSAIGETTSSIPIQGHVSQQGGWAEGYPYPGSTPKSTQALAEEQKVSSDMKIREEVEPENRKTPGNDHQNPPQIDDVEVRNHNQVREMAVATTPPSQDAHLLPPSRDPRQNTTAKPATYRDAVITGQVPLSGIEDQLSTSSSTYAPVHSDSESNLIDLNYPEPEQSSQRVYCSERIPREQLELLNRLSKSDNSLSSQFVTSESPANTAQQDSGKEAVGKSHDEFKTVNDDANHHTHKDVETIFEKVGVSDETLESEPLHKIVNPDDANKNRVVNGADTEIGVSNLSHVNAAMSHVIPEEQASLQGDILIDINDRFPRDFLSEIFSQAISEDTSTVRPYPHDGAAVSMNVQNHDRKNWSYFQQLAEDQFIQRDVVLDQADSRIPSDRKDGGESSRLPYVSPLSRDGISTNLANPQLTLGQDYGGNFSEKDGGGTGSIPPALENEQMKVTESEEFGAMVENLRTPDSEPKDEKTETRHAALPPLGSEFDYSGLQIIKNEDLEELRELGSGTFGTVYHGKWRGSDVAIKRIKKSCFAGRSSEQERLTGEFWGEAEILSKLHHPNVVAFYGVVKDGPGGTLATVTEYMVDGSLRHVLVRKDRHLDRRKRLIIAMDAAFGMEYLHSKNTVHFDLKCDNLLVNLKDPSRPICKVGDFGLSKIKRNTLVSGGVRGTLPWMAPELLNGSSSKVSEKVDVFSFGIVLWEILTGEEPYANMHYGAIIGGIVNNTLRPTIPGFCDDEWRTLMEECWAPNPMARPSFTEIAGRLRVMSSAATSTQSKPSAHRASK
binds	binds	RAF24 (B4 Raf-like MAPKKK), endogenous (protein, UniProt O64768 1-1257) MDQAKGYEHVRYTAPDPRDEGLGSINQRFSHDSSTNVNTYVRPPDYGVSTPARPVLNYSIQTGEEFAFEFMRDRVIMKPQFIPNVYGEHSGMPVSVNLSALGMVHPMSESGPNATVLNIEEKRQSFEHERKPPSRIEDKTYHELVQSAPVISSKNDTGQRRHSLVSSRASDSSLNRAKFLCSFGGKVIPRPRDQKLRYVGGETRIIRISKTISFQELMHKMKEIFPEARTIKYQLPGEDLDALVSVSSDEDLQNMMEECIVFGNGGSEKPRMFLFSSSDIEEAQFVMEHAEGDSEVQYVVAVNGMDLSSRRSSLGLSPPGNNLDELLHGNFDRKIDRAATEPAVASLTPLAGNESLPASQTSQPVTGFSTGNEPFSQPYLGQQLQFPGLGNHQIYTSGHMASIGYIDEKRSAPLHVQPQPHYIPYSVNPETPLESLVPHYPQKPEQGFLREEQIFHVQDPETSSKEAKMRRDDSFQKVNDHPISTVESNLSAKEPKMRRESSTPRVNEYPVSSMPSDLIVPDDLPKEEAPIVTQTSSSTPDPSSSTLSEKSLRKSEDHVENNLSAKEPKMRKEHSTTRVNEYSVSSVSSDSMVPDQALKEEAPISMKISNSTPDPKSLVYPEKSLRTSQEKTGAFDTTNEGMKKNQDNQFCLLGGFSVSGHGTSNNSSSNVSNFDQPVTQQRVFHSERTVRDPTETNRLSKSDDSLASQFVMAQTTSDAFLPISESSETSHEANMESQNVHPTAPVIPAPDSIWTAEGSMSQSEKKNVETNTPEHVSQTETSAKAVPQGHNEKGDIVVDINDRFPREFLADILKTKESLNFPGLGPLHADGAGVSLNIQNNDPKTWSYFRNLAQDEFERKDLSLMDQDHPGFPTSMTNTNGVPIDYSYPPLQSEKVASSQIHPQIHFDGNIKPDVSTITIPDLNTVDTQEDYSQSQIKGAESTDATLNAGVPLIDFMAADSGMRSLQVIKNDDLEELKELGSGTFGTVYHGKWRGTDVAIKRIKRSCFIGRSSEQERLTSEFWHEAEILSKLHHPNVMAFYGVVKDGPGGTLATVTEYMVNGSLRHVLLSNRHLDRRKRLIIAMDAAFGMEYLHSKSIVHFDLKCDNLLVNLKDPARPICKVGDFGLSKIKRNTLVTGGVRGTLPWMAPELLSGSSSKVSEKVDVFSFGIVLWEILTGEEPYANMHYGAIIGGIVNNTLRPTVPNYCDPEWRMLMEQCWAPDPFVRPAFPEIARRLRTMSSSAVHTKPHAVNHQIHK

No constants are given. Whether binding was seen depends on the method and setting. In cells and extracts the contact can be indirect. A yes stands for co-enrichment or nearness to the bait. Other partners may have been found. Where a sequence is shown, tags or fusion partners need not be part of it.
